{"source": "PubChem BioAssay AID504774 (Drosophila RNAi Screening Center, 2011)", "assay": "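Fly genes whose loss alters survival after alkylation damage to DNA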 (primary screen)", "system": "Drosophila Kc167 cells", "reagent": "long dsRNA against Drosophila genes, about 0.25 µg dsRNA per well", "time to read-out": "about 6 days: 3 days knock-down, then 3 days with or without MMS", "challenge": "methyl methanesulphonate 0.004% (w/v) for 3 days after knock-down", "read-out": "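ATP-dependent luminescence as a measure of live cells in MMS-exposed wells, quantile normalised within each plate, with replicate values also given as a mean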", "direction": "mean viability with MMS and viability with MMS: higher = more surviving cells after MMS", "note": "The deposit covers about 23,000 reagents; this is an unselected part of those with a known target gene and a result. 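Values are quantile-normalised luminescence on an arbitrary scale; higher means more cells surviving MMS.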 Further read-outs or replicates are left out here. Reagent sequences are not shown."}
{"Gene": "Hydr2 (GeneID 33532)", "dsRNA": "DRSC00607", "mean viability with MMS": 3.55e6, "viability with MMS, replicate 1": 3.96e6}
{"Gene": "CG15152 (GeneID 35082)", "dsRNA": "DRSC02453", "mean viability with MMS": 3.44e6, "viability with MMS, replicate 1": 3.86e6}
{"Gene": "CG13408 (GeneID 42597)", "dsRNA": "DRSC13534", "mean viability with MMS": 3.56e6, "viability with MMS, replicate 1": 4.08e6}
{"Gene": "CG13408 (GeneID 42597)", "dsRNA": "DRSC14584", "mean viability with MMS": 3.49e6, "viability with MMS, replicate 1": 3.91e6}
{"Gene": "Cam (GeneID 36329)", "dsRNA": "DRSC07353", "mean viability with MMS": 3.69e6, "viability with MMS, replicate 1": 4.02e6}
{"Gene": "Cam (GeneID 36329)", "dsRNA": "DRSC07354", "mean viability with MMS": 3.69e6, "viability with MMS, replicate 1": 4.58e6}
{"Gene": "ProtA (GeneID 34866)", "dsRNA": "DRSC03372", "mean viability with MMS": 3.58e6, "viability with MMS, replicate 1": 4.13e6}
{"Gene": "CG8841 (GeneID 36336)", "dsRNA": "DRSC07286", "mean viability with MMS": 3.56e6, "viability with MMS, replicate 1": 4.10e6}
{"Gene": "Efhc1.1 (GeneID 32528)", "dsRNA": "DRSC20135", "mean viability with MMS": 3.59e6, "viability with MMS, replicate 1": 4.10e6}
{"Gene": "CG1827 (GeneID 35989)", "dsRNA": "DRSC06719", "mean viability with MMS": 3.58e6, "viability with MMS, replicate 1": 4.07e6}
{"Gene": "Acp53C14c (GeneID 3346203)", "dsRNA": "DRSC05626", "mean viability with MMS": 3.64e6, "viability with MMS, replicate 1": 4.33e6}
{"Gene": "Ugt37C2 (GeneID 53513)", "dsRNA": "DRSC02247", "mean viability with MMS": 3.51e6, "viability with MMS, replicate 1": 3.95e6}
{"Gene": "CG7379 (GeneID 42140)", "dsRNA": "DRSC16237", "mean viability with MMS": 3.82e6, "viability with MMS, replicate 1": 4.18e6}
{"Gene": "CG10750 (GeneID 35206)", "dsRNA": "DRSC02105", "mean viability with MMS": 3.40e6, "viability with MMS, replicate 1": 3.64e6}
{"Gene": "CG42709 (GeneID 39453)", "dsRNA": "DRSC10277", "mean viability with MMS": 3.53e6, "viability with MMS, replicate 1": 4.00e6}
{"Gene": "Mst84Db (GeneID 40888)", "dsRNA": "DRSC12542", "mean viability with MMS": 3.44e6, "viability with MMS, replicate 1": 3.81e6}
{"Gene": "Mst84Db (GeneID 40888)", "dsRNA": "DRSC12598", "mean viability with MMS": 3.55e6, "viability with MMS, replicate 1": 3.93e6}
{"Gene": "Cyp4c3 (GeneID 43663)", "dsRNA": "DRSC16631", "mean viability with MMS": 3.38e6, "viability with MMS, replicate 1": 3.90e6}
{"Gene": "Impbeta11 (GeneID 36732)", "dsRNA": "DRSC07525", "mean viability with MMS": 3.39e6, "viability with MMS, replicate 1": 3.94e6}
{"Gene": "RpS3A (GeneID 43768)", "dsRNA": "DRSC17168", "mean viability with MMS": 2.89e6, "viability with MMS, replicate 1": 3.67e6}
{"Gene": "RpL26 (GeneID 40060)", "dsRNA": "DRSC10726", "mean viability with MMS": 2.83e6, "viability with MMS, replicate 1": 3.53e6}

Reformatted: entries from further up
| Gene | dsRNA | mean viability with MMS | viability with MMS, replicate 1 |
| --- | --- | --- | --- |
| Ugt37C2 (GeneID 53513) | DRSC02247 | 3.51e6 | 3.95e6 |
| CG7379 (GeneID 42140) | DRSC16237 | 3.82e6 | 4.18e6 |
| CG10750 (GeneID 35206) | DRSC02105 | 3.40e6 | 3.64e6 |
| CG42709 (GeneID 39453) | DRSC10277 | 3.53e6 | 4.00e6 |
| Mst84Db (GeneID 40888) | DRSC12542 | 3.44e6 | 3.81e6 |

Next reagents:
{"Gene": "CG13893 (GeneID 38074)", "dsRNA": "DRSC08363", "mean viability with MMS": 3.43e6, "viability with MMS, replicate 1": 3.96e6}
{"Gene": "CG6225 (GeneID 41559)", "dsRNA": "DRSC15996", "mean viability with MMS": 3.46e6, "viability with MMS, replicate 1": 3.94e6}
{"Gene": "fry (GeneID 39122)", "dsRNA": "DRSC08993", "mean viability with MMS": 3.48e6, "viability with MMS, replicate 1": 3.95e6}
{"Gene": "fry (GeneID 39122)", "dsRNA": "DRSC10172", "mean viability with MMS": 3.45e6, "viability with MMS, replicate 1": 3.87e6}
{"Gene": "fry (GeneID 39122)", "dsRNA": "DRSC10709", "mean viability with MMS": 3.57e6, "viability with MMS, replicate 1": 4.12e6}
{"Gene": "fry (GeneID 39122)", "dsRNA": "DRSC10712", "mean viability with MMS": 3.34e6, "viability with MMS, replicate 1": 3.81e6}
{"Gene": "Cand1 (GeneID 34403)", "dsRNA": "DRSC01992", "mean viability with MMS": 3.58e6, "viability with MMS, replicate 1": 4.15e6}
{"Gene": "CG34249 (retired record) (GeneID 5740397)", "dsRNA": "DRSC09431", "mean viability with MMS": 3.42e6, "viability with MMS, replicate 1": 4.02e6}
{"Gene": "CG12299 (GeneID 34483)", "dsRNA": "DRSC02158", "mean viability with MMS": 3.41e6, "viability with MMS, replicate 1": 3.61e6}
{"Gene": "Klc (GeneID 39445)", "dsRNA": "DRSC11203", "mean viability with MMS": 3.52e6, "viability with MMS, replicate 1": 3.97e6}
{"Gene": "CG5569 (GeneID 37783)", "dsRNA": "DRSC04514", "mean viability with MMS": 3.58e6, "viability with MMS, replicate 1": 4.05e6}
{"Gene": "RpS5b (GeneID 41807)", "dsRNA": "DRSC16173", "mean viability with MMS": 3.43e6, "viability with MMS, replicate 1": 3.74e6}
{"Gene": "LysX (GeneID 38122)", "dsRNA": "DRSC08678", "mean viability with MMS": 3.62e6, "viability with MMS, replicate 1": 4.07e6}
{"Gene": "LpR2 (GeneID 43105)", "dsRNA": "DRSC13726", "mean viability with MMS": 3.67e6, "viability with MMS, replicate 1": 4.14e6}
{"Gene": "LpR2 (GeneID 43105)", "dsRNA": "DRSC13728", "mean viability with MMS": 3.67e6, "viability with MMS, replicate 1": 4.12e6}
{"Gene": "LpR2 (GeneID 43105)", "dsRNA": "DRSC15655", "mean viability with MMS": 3.58e6, "viability with MMS, replicate 1": 4.11e6}
{"Gene": "LpR2 (GeneID 43105)", "dsRNA": "DRSC15658", "mean viability with MMS": 3.57e6, "viability with MMS, replicate 1": 4.06e6}
